Experimental data as given in article PMC9352529.
Results are given in words; binding and its absence hold for the method and conditions named. Binding seen in cells or lysates may run through a third protein. Binding can be weak; no strength is given. Tags and fused reporters may be left off the sequences shown.

Legend:
[1] = biological target: T1, FLAG-tagged EMC3, wild type (human) (human) (UniProt Q9P0I2); assay: co-IP; HEK293T cells stably expressing α1β2γ2 GABAA receptors, transiently transfected with FLAG-tagged EMC3 variants, or with FLAG-tagged EMC5 and EMC6 variants; lysate (50 mM Tris pH 7.5, 150 mM NaCl, 2 mM DDM) on anti-FLAG M2 magnetic beads overnight at 4°C; blot for α1 and FLAG; band intensity of α1 over FLAG
T1 sequence: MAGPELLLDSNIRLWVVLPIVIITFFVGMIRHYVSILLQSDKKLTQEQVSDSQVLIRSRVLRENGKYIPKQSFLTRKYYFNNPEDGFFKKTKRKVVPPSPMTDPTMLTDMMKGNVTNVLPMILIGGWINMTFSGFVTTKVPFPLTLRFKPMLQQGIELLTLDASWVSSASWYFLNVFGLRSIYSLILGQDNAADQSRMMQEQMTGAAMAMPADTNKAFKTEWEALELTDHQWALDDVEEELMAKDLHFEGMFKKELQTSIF

[2] = biological target: T2, FLAG-tagged EMC6, wild type (human) (human) (UniProt Q9BV81); assay: as above
T2 sequence: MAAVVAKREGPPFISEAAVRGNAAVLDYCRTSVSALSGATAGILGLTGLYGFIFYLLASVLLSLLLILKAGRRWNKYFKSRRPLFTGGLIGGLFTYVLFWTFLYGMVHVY

Substance: human GABAA receptor α1 subunit (HEK293T cells stably expressing α1β2γ2)
- binding [1]: binds
- binding [2]: binds
